Changes are numbered by the printed parent chain. In names and notes the source's numbering stands. Results are given in words; binding and its absence hold for the method and conditions named. In cells and extracts the contact can be indirect. Some binding calls cover weakened binding; strength is not graded here.

Amino acid sequences for entries named in this document (tags omitted). A change or cut given only in a name is not applied to a line headed by its entry. Residues count along the entry.
UniProt Q13467, 27-585: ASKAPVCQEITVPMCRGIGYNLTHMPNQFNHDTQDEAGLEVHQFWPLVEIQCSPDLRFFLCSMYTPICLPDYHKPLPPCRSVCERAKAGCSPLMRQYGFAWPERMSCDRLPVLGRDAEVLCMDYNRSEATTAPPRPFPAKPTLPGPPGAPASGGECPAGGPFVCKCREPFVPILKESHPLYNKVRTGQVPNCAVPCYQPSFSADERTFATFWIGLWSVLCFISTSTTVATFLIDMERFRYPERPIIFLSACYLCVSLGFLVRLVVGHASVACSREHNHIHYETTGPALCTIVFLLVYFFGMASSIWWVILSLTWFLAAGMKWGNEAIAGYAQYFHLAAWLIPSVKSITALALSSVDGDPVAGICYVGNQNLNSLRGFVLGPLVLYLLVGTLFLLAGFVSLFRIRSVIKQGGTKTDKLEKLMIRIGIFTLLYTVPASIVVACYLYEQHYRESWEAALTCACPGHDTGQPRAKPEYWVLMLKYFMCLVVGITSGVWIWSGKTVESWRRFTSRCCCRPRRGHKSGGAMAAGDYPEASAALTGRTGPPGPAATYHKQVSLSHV

In the assay the target is HA-FZD5-Nluc (UniProt Q13467). Put plainly: FRET or BRET. (In general: Bioluminescence resonance energy transfer reports proximity on the nanometre scale.)

B1: DEP-Venus (domain or fragment, UniProt O14641 418-510)
chain: SVHTDMASVTKAMAAPESGLEVRDRMWLKITIPNAFLGSDVVDWLYHHVEGFPERREARKYASGLLKAGLIRHTVNKITFSEQCYYVFGDLSG
Turning to B1, the binding entry is given as “binds”.

B2: DEP-Venus L445E (domain or fragment, UniProt O14641 418-510)
chain: B1 chain with L28E
With B2, the binding entry is “no binding”.

B3: DEP-Venus K446M (domain or fragment, UniProt O14641 418-510)
chain: B1 chain with K29M
As to B3, the binding result is on record as “binds”.

B4: DEP-Venus G436P (domain or fragment, UniProt O14641 418-510)
chain: B1 chain with G19P
In the case of B4, the binding entry is reported as “binds”.
